# Data published in patent US20250326720A1, “CAREBASTINE SALT AND USE OF SAME” (priority 2022, published 2025).
# Read-outs that look alike come from different tables or passages of the source.
# Tests used:
# [1] = system: histamine-induced shock in guinea pigs; test: Histamine-induced shock test in guinea pigs; format: in vivo; conditions: gavage, equimolar to 1.00 mg/kg ebastine, histamine phosphate i.v. one hour after administration, x ± s, n = 10
# Experimental: One hour after administration, 0.125 wt. % histamine phosphate saline solution was injected intravenously into lateral sides of hind paws of the guinea pigs at 2 ml/kg. After the injection was completed within 10 s, a stopwatch was used immediately to observe the latency period for the guinea pigs to develop accelerated respiration and collapse with convulsions.
# [2] = system: KM mice; conditions: for Mortality rate of mice / Number of surviving mice: single intragastric, 14 days observation; for Number of surviving mice: 10 mice per group
# Experimental: All drugs were administered by intragastric administration, and the blank control group was administered with an equal volume of 0.5% CMC-Na solution. All animals were fasted for 12 hours before administration, but were allowed to drink water freely.
# After administration, the mice were kept and observed for 14 days, and the toxic reactions (such as death) of the mice were observed and recorded every day. After the observation period, all surviving animals were dissected to observe whether there were obvious lesions in each organ.
# [3] = high dose (equimolar to 5 g/kg ebastine)
# [4] = low dose (equimolar to 2.5 g/kg ebastine)
structure (smiles),measurement,setting,value
"CC(C)(C)c1ccc(C(=O)CCCN2CCC(OC(c3ccccc3)c3ccccc3)CC2)cc1 [Comparative Example 1, ebastine]",Time of accelerated respiration,[1],151 ± 19.97 ^ s
same,Mortality rate of mice,[2]; [3],60%
same,Number of surviving mice,[2]; [3],4
same,Mortality rate of mice,[2]; [4],0
same,Number of surviving mice,[2]; [4],10
same,abnormalities during observation period and in gross anatomical observation,"[2]; mouse, in vivo",no obvious abnormalities were observed
